The supplement of paper PMC4604168 (melanoma cell lines)
Some of the results follow. Repeats are few or missing, and single values can be far off.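 Imaging used 1,536-well plates; nuclei positive for cleaved PARP by antibody were divided by total DNA-stained nuclei to yield the apoptosis fraction. Doses for screening kept most cells viable, and cell lines differ markedly in resting and induced cleaved-PARP levels.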

Tests used:
Experiment in all cases: cleaved PARP positive nuclei fraction relative to DMSO control; melanoma cells; higher = more apoptosis
Details in all cases: library dose: low library concentration; 72 h
501Mel = system: 501Mel
A101D = system: A101D
A2058 = system: A2058
A375 = system: A375
C32 = system: C32
CBRC008 = system: CBRC008 (line from a melanoma biopsy)
CBRC013 = system: CBRC013 (line from a melanoma biopsy)
CBRC014 = system: CBRC014 (line from a melanoma biopsy)
CBRC016 = system: CBRC016 (line from a melanoma biopsy)
CBRC017 = system: CBRC017 (line from a melanoma biopsy)

Structure (SMILES)	cleaved PARP positive nuclei fraction (501Mel) [%]	cleaved PARP positive nuclei fraction (A101D) [%]	cleaved PARP positive nuclei fraction (A2058) [%]	cleaved PARP positive nuclei fraction (A375) [%]	cleaved PARP positive nuclei fraction (C32) [%]	cleaved PARP positive nuclei fraction (CBRC008) [%]	cleaved PARP positive nuclei fraction (CBRC013) [%]	cleaved PARP positive nuclei fraction (CBRC014) [%]	cleaved PARP positive nuclei fraction (CBRC016) [%]	cleaved PARP positive nuclei fraction (CBRC017) [%]
Clc1ccc(Nc2nnc(Cc3ccncc3)c3ccccc23)cc1 [vatalanib] + Cn1cncc1[C@@](N)(c1ccc(Cl)cc1)c1ccc2c(c1)c(-c1cccc(Cl)c1)cc(=O)n2C [tipifarnib] (first compound 2 µM, partner dose 0.01 µM)	90.2	296	149	467	159	164	135	138	143	113
COc1cc(Nc2ncc(F)c(Nc3ccc4c(n3)NC(=O)C(C)(C)O4)n2)cc(OC)c1OC [Tamatinib] + O=C(Nc1cccc(Cl)c1)Nc1ncc(CCNc2ncnc3ccsc23)s1 [SNS314] (first compound 0.4 µM, partner dose 0.0008 µM)	460	416	85.4	104	103	94	125	93.5	119	108
Nc1cccc2c1CN(C1CCC(=O)NC1=O)C2=O (stereo not given) [lenalidomide] + Cc1cc(N2CCOCC2)cc2[nH]c(-c3c(NC[C@@H](O)c4cccc(Cl)c4)cc[nH]c3=O)nc12 [BMS536924] (first compound 1 µM, partner dose 0.2 µM)	42.7	120	93.5	268	171	358	97.3	92.9	60.2	107
CC(=O)c1c(C)c2cnc(Nc3ccc(N4CCNCC4)cn3)nc2n(C2CCCC2)c1=O [palbociclib] + CO[C@@H]1[C@H](N(C)C(=O)c2ccccc2)C[C@H]2O[C@]1(C)n1c3ccccc3c3c4c(c5c6ccccc6n2c5c31)C(=O)NC4 [Midostaurin] (first compound 0.04 µM, partner dose 0.08 µM)	191	104	75.5	598	171	45.2	131	120	92.2	91.4
OCc1c[nH]c2ccccc12 [Indole-3-carbinol] + OCCn1cc(-c2cnc3nnn(Cc4ccc5ncccc5c4)c3n2)cn1 [PF04217903] (first compound 0.8 µM, partner dose 1 µM)	73.5	250	134	135	59.8	131	104	174	110	108
Cn1c(Nc2ccc(C(F)(F)F)cc2)nc2cc(Oc3ccnc(-c4ncc(C(F)(F)F)[nH]4)c3)ccc21 + O=C(CCCCCCC(=O)Nc1ccccc1)NO [vorinostat] (first compound 0.08 µM, partner dose 0.08 µM)	169	137	112	176	148	156	138	90.3	245	113
Cc1nc(Nc2ncc(C(=O)Nc3c(C)cccc3Cl)s2)cc(N2CCN(CCO)CC2)n1 [dasatanib] + COc1cc2c(Oc3ccc4[nH]c(C)cc4c3F)ncnc2cc1OCCCN1CCCC1 [cediranib] (first compound 0.004 µM, partner dose 0.4 µM)	202	93.4	198	187	289	91.8	146	182	50.5	293
COc1cc(Nc2ncc(F)c(Nc3ccc4c(n3)NC(=O)C(C)(C)O4)n2)cc(OC)c1OC [Tamatinib] + O=C(O)c1ccc(-c2c[nH]c3ncc(-c4ccccc4)cc23)cc1C1CCCC1 [GSK650394] (first compound 0.4 µM, partner dose 0.16 µM)	72.4	45.1	137	161	211	310	116	94.9	93.2	93.3
C[C@@H]1CCN(C(=O)CC#N)C[C@@H]1N(C)c1ncnc2[nH]ccc12 + CN(NC(=O)CC(=O)NN(C)C(=S)c1ccccc1)C(=S)c1ccccc1 [STA4783] (first compound 1 µM, partner dose 0.006 µM)	163	51.6	98.6	2700	94.4	1870	168	550	115	168
Cc1cc(N2CCOCC2)cc2[nH]c(-c3c(NC[C@@H](O)c4cccc(Cl)c4)cc[nH]c3=O)nc12 + COc1cc2c(Oc3ccc4[nH]c(C)cc4c3F)ncnc2cc1OCCCN1CCCC1 [cediranib] (first compound 0.2 µM, partner dose 0.4 µM)	347	88.7	111	244	141	153	146	87.4	77.2	70
OCc1c[nH]c2ccccc12 [Indole-3-carbinol] + NC(=O)Nc1cc(-c2cccc(F)c2)sc1C(=O)N[C@H]1CCCNC1 [AZD7762] (first compound 0.8 µM, partner dose 0.02 µM)	84.7	183	42.3	565	150	119	59.2	88.5	72.5	375
O=C(Nc1cccc(Cl)c1)Nc1ncc(CCNc2ncnc3ccsc23)s1 + Cn1cncc1[C@@](N)(c1ccc(Cl)cc1)c1ccc2c(c1)c(-c1cccc(Cl)c1)cc(=O)n2C [tipifarnib] (first compound 0.0008 µM, partner dose 0.01 µM)	79.2	89.4	142	201	87.8	292	127	91.1	87.7	102
C=CCNC1=C2C[C@@H](C)C[C@H](OC)[C@H](O)[C@@H](C)/C=C(\C)[C@H](OC(N)=O)[C@@H](OC)/C=C\C=C(/C)C(=O)NC(=CC1=O)C2=O [Tanespimycin] + CN(C)S(=O)(=O)c1ccc2c(c1)/C(=C/c1cc3c([nH]1)CCCC3)C(=O)N2 [SU6656] (first compound 0.002 µM, partner dose 0.4 µM)	295	755	180	70.1	858	80.7	140	102	240	96.2
Cc1nc(Nc2ncc(C(=O)Nc3c(C)cccc3Cl)s2)cc(N2CCN(CCO)CC2)n1 [dasatanib] + C=CCn1c(=O)c2cnc(Nc3ccc(N4CCN(C)CC4)cc3)nc2n1-c1cccc(C(C)(C)O)n1 [MK1775] (first compound 0.004 µM, partner dose 0.02 µM)	105	111	148	609	476	88.9	120	132	109	85.4
O=C(CCCCCCC(=O)Nc1ccccc1)NO [vorinostat] + CN(NC(=O)CC(=O)NN(C)C(=S)c1ccccc1)C(=S)c1ccccc1 [STA4783] (first compound 0.08 µM, partner dose 0.006 µM)	435	50.8	290	6580	121	785	129	445	466	162
CC1(C)NC(=O)N(c2ccc([N+](=O)[O-])c(C(F)(F)F)c2)C1=O [nilutamide] + NC(=O)Nc1cc(-c2cccc(F)c2)sc1C(=O)N[C@H]1CCCNC1 [AZD7762] (first compound 1 µM, partner dose 0.02 µM)	137	80.9	120	234	127	133	107	99.6	76.4	75.1
C=CCNC1=C2C[C@@H](C)C[C@H](OC)[C@H](O)[C@@H](C)/C=C(\C)[C@H](OC(N)=O)[C@@H](OC)/C=C\C=C(/C)C(=O)NC(=CC1=O)C2=O [Tanespimycin] + OCCn1cc(-c2cnc3nnn(Cc4ccc5ncccc5c4)c3n2)cn1 [PF04217903] (first compound 0.002 µM, partner dose 1 µM)	92.8	139	133	155	153	133	128	99.7	257	129
O=C(CCCCCCC(=O)Nc1ccccc1)NO [vorinostat] + NCC(=O)Nc1ccc(-n2nc(C(F)(F)F)cc2-c2ccc3c(ccc4ccccc43)c2)cc1 [OSU03012] (first compound 0.08 µM, partner dose 1 µM)	494	81.9	109	3380	184	42.2	96.1	77.4	115	74.5
NC(=O)Nc1cc(-c2cccc(F)c2)sc1C(=O)N[C@H]1CCCNC1 + NCC(=O)Nc1ccc(-n2nc(C(F)(F)F)cc2-c2ccc3c(ccc4ccccc43)c2)cc1 [OSU03012] (first compound 0.02 µM, partner dose 1 µM)	1120	188	93.4	8970	51	159	102	104	61.2	86.2
OCCn1cc(-c2cnc3nnn(Cc4ccc5ncccc5c4)c3n2)cn1 + CN(C)S(=O)(=O)c1ccc2c(c1)/C(=C/c1cc3c([nH]1)CCCC3)C(=O)N2 [SU6656] (first compound 1 µM, partner dose 0.4 µM)	84.4	41.7	73.7	20.2	274	177	100	85.1	121	98.7
COCC[n+]1c2c(n(Cc3cnccn3)c1C)C(=O)c1ccccc1C2=O + OCCn1cc(-c2cnc3nnn(Cc4ccc5ncccc5c4)c3n2)cn1 [PF04217903] (first compound 0.0004 µM, partner dose 1 µM)	135	558	130	132	47.9	973	119	69.3	70.1	109
CC(C)(C)c1cnc(CSc2cnc(NC(=O)C3CCNCC3)s2)o1 + C[C@@H]1CCN(C(=O)CC#N)C[C@@H]1N(C)c1ncnc2[nH]ccc12 [CP690550] (first compound 0.01 µM, partner dose 1 µM)	85.5	161	122	104	90.6	180	131	80.9	182	76.5

Part of the list above, with bars between the fields:
Structure (SMILES) | cleaved PARP positive nuclei fraction (501Mel) [%] | cleaved PARP positive nuclei fraction (A101D) [%] | cleaved PARP positive nuclei fraction (A2058) [%] | cleaved PARP positive nuclei fraction (A375) [%] | cleaved PARP positive nuclei fraction (C32) [%] | cleaved PARP positive nuclei fraction (CBRC008) [%] | cleaved PARP positive nuclei fraction (CBRC013) [%] | cleaved PARP positive nuclei fraction (CBRC014) [%] | cleaved PARP positive nuclei fraction (CBRC016) [%] | cleaved PARP positive nuclei fraction (CBRC017) [%]
CC1(C)NC(=O)N(c2ccc([N+](=O)[O-])c(C(F)(F)F)c2)C1=O [nilutamide] + NC(=O)Nc1cc(-c2cccc(F)c2)sc1C(=O)N[C@H]1CCCNC1 [AZD7762] (first compound 1 µM, partner dose 0.02 µM) | 137 | 80.9 | 120 | 234 | 127 | 133 | 107 | 99.6 | 76.4 | 75.1
C=CCNC1=C2C[C@@H](C)C[C@H](OC)[C@H](O)[C@@H](C)/C=C(\C)[C@H](OC(N)=O)[C@@H](OC)/C=C\C=C(/C)C(=O)NC(=CC1=O)C2=O [Tanespimycin] + OCCn1cc(-c2cnc3nnn(Cc4ccc5ncccc5c4)c3n2)cn1 [PF04217903] (first compound 0.002 µM, partner dose 1 µM) | 92.8 | 139 | 133 | 155 | 153 | 133 | 128 | 99.7 | 257 | 129
O=C(CCCCCCC(=O)Nc1ccccc1)NO [vorinostat] + NCC(=O)Nc1ccc(-n2nc(C(F)(F)F)cc2-c2ccc3c(ccc4ccccc43)c2)cc1 [OSU03012] (first compound 0.08 µM, partner dose 1 µM) | 494 | 81.9 | 109 | 3380 | 184 | 42.2 | 96.1 | 77.4 | 115 | 74.5
NC(=O)Nc1cc(-c2cccc(F)c2)sc1C(=O)N[C@H]1CCCNC1 + NCC(=O)Nc1ccc(-n2nc(C(F)(F)F)cc2-c2ccc3c(ccc4ccccc43)c2)cc1 [OSU03012] (first compound 0.02 µM, partner dose 1 µM) | 1120 | 188 | 93.4 | 8970 | 51 | 159 | 102 | 104 | 61.2 | 86.2
OCCn1cc(-c2cnc3nnn(Cc4ccc5ncccc5c4)c3n2)cn1 + CN(C)S(=O)(=O)c1ccc2c(c1)/C(=C/c1cc3c([nH]1)CCCC3)C(=O)N2 [SU6656] (first compound 1 µM, partner dose 0.4 µM) | 84.4 | 41.7 | 73.7 | 20.2 | 274 | 177 | 100 | 85.1 | 121 | 98.7
